From doi:10.1101/2022.12.26.521971
Results are given in words; binding and its absence hold for the method and conditions named. In cells and extracts the contact can be indirect. Some results given as binding are weak or reduced against the parent protein; the word gives no strength.

Amino acid sequences for entries named in this document (tags omitted). A change or cut given only in a name is not applied to a line headed by its entry.
UniProt P20789: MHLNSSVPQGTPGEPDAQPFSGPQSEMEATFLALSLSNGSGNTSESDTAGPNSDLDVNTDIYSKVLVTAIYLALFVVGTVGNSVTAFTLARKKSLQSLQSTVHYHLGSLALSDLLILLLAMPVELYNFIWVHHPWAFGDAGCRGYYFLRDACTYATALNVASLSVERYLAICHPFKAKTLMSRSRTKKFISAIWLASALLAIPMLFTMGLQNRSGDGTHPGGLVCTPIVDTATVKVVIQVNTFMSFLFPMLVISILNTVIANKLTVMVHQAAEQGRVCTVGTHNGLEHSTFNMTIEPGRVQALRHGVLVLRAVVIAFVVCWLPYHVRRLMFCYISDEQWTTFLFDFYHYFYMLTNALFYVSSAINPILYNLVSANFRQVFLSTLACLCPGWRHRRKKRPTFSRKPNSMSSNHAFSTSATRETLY

Legend:
Assay in all cases: FRET or BRET
[1] = molecular target: constitutively active rat NTSR1 F358A with C-terminal Renilla luciferase (RLuc) (rat) (UniProt P20789)
[2] = molecular target: rat NTSR1 containing C-terminal Renilla luciferase (RLuc) (rat) (UniProt P20789)
[3] = molecular target: human NTSR1 containing C-terminal Renilla luciferase (RLuc) (human) (UniProt P30989)

binding [1]: binds
binding [2]: binds
binding [3]: binds
Substance: Venus-tagged N-terminal β-Arrestin2 (from UniProt P32121 1-409)
